{
  "sequences": {"note": "Amino acid sequences for entries named in this document (tags omitted).", "UniProt P0C746": "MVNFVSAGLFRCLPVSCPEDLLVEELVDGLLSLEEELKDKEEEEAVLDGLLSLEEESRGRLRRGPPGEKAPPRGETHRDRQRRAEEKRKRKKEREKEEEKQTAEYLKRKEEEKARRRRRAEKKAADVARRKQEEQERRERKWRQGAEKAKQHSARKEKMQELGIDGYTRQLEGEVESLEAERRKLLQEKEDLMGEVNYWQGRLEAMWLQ", "UniProt P06748": "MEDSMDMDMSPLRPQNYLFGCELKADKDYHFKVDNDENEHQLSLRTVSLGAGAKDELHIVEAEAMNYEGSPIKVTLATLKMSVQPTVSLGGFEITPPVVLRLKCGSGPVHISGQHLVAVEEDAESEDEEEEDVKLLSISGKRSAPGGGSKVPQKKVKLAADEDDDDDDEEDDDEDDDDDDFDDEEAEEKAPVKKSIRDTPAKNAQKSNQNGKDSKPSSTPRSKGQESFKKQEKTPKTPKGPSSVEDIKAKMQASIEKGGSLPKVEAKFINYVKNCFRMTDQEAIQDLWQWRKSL"},
  "source": "paper PMC9753777",
  "key": {"[1]": {"molecular_target": "Myc-tagged uHBZ (HTLV-1 basic leucine zipper factor, unspliced isoform) (HTLV-1) (UniProt P0C746)", "assay": "co-IP; lysates of SupT1 T cells transfected with Myc-tagged sHBZ or uHBZ precipitated with anti-Myc antibodies; Western blot with anti-B23"}, "[2]": {"molecular_target": "Myc-tagged uHBZ (HTLV-1 basic leucine zipper factor, unspliced isoform) (HTLV-1) (UniProt P0C746)", "assay": "co-IP; lysates of transfected 293T cells (1% Triton, 100 mM NaCl, pH 8) precipitated with anti-Myc antibody on Dynabeads Protein G, overnight 4°C; Western blot with anti-B23, anti-DsRed, anti-C23, anti-Myc"}},
  "note": "These are yes or no findings as the source states them, for the method shown. Binding seen in cells or lysates may run through a third protein. Some entries that bind do so weakly or less than the wild type.",
  "data": [
    {"substance": "nucleophosmin (NPM1/B23), endogenous (from UniProt P06748 1-294)", "values": [
      {"measurement": "binding", "setting": "[1]", "result": "binds"},
      {"measurement": "binding", "setting": "[2]", "result": "binds"}
    ]}
  ]
}
